Measured values: patent US20070093433A1, “Aminoglycoside antibiotics for use as vap-1/ssao inhibitors” (priority 2003, published 2007)
At least one compound was matched to its structure with a doubt left.

Target: T1, VAP-1 (Homo sapiens, UniProt Q16853)
T1 sequence (Q16853 1-763): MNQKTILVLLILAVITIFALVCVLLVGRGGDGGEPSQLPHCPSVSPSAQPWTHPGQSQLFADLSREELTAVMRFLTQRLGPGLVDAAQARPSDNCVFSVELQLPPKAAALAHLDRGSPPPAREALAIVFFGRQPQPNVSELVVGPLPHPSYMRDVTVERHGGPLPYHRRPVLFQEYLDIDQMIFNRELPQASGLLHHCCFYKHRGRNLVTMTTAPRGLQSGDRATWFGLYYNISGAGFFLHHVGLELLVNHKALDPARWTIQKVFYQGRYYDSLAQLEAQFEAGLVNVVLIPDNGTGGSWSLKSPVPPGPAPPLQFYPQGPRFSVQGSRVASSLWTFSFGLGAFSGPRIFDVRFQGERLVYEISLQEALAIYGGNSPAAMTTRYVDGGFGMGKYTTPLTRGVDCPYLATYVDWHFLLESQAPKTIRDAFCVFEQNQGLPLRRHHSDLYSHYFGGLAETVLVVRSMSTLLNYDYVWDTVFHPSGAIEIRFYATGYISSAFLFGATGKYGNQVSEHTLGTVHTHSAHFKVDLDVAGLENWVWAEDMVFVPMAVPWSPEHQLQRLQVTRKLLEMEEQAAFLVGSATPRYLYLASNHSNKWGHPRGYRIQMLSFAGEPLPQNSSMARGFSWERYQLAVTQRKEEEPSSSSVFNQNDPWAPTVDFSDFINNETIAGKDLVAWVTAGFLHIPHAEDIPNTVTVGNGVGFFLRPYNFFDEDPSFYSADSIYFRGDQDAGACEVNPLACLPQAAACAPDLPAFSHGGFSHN
Test: SSAO (amine oxidase) activity of VAP-1 transfected cells, radiochemical [14C]-benzylamine and fluorometric Amplex Red H2O2 assays
Assay type: cell-based
Set-up: expressed in transfected cells; host or cells: Ax endothelial cells or CHO cells
Conditions: summary of Table I
Protocol: Amine oxidase activity was assayed radiochemically using [7-^14C]-benzylamine hydrochloride (spec. act. 57 mCi/mmol, Amersham) as a substrate. In brief, the cells (VAP-1 transfected Ax endothelial cells or VAP-1 transfected CHO cells and their mock transfected controls) were seeded onto gelatin-coated 24-well tissue culture plates and allowed to reach confluence. Prior to experiments, the cells were rinsed twice with RPMI 1640 and pre-incubated 30 min at 37° C. in 0.3 ml RPMI-1640 medium containing amikacin, tobramycin, gentamicin, streptomicin or geneticin (1 mg/ml). The reaction was initiated by addition of 6 μmol/L [^14C]-benzylamine (40000 dpm) and terminated after 1 hour by citric acid. The aldehydes were extracted into toluene containing diphenyloxazole and the formation of [^14C]-labelled benzaldehyde was quantified by scintillation counting.
SSAO activity of the cells was also independently measured using Amplex Red reagent (10-acetyl-3,7-dihydroxyphenoxazine; Molecular Probes Europe BV), a highly sensitive and stable probe for H2O2. […] Fluorescence intensity of the samples was measured (excitation, 545 nm; emission, 590 nm; Tecan ULTRA fluoropolarometer) and H2O2 concentration was calculated from calibration curves generated by serial dilutions of either standard H2O2 or resorufin, the product of the Amplex Red reaction (Molecular Probes).

For CN[C@@H]1[C@@H](O)[C@@H](O[C@@H]2[C@@H](O)[C@H](O[C@H]3O[C@H]([C@@H](C)O)[C@@H](O)[C@H](O)[C@H]3N)[C@@H](N)C[C@H]2N)OC[C@]1(C)O [Geneticin, geneticin], the “effect on enzymatic (SSAO) activity of VAP-1, in words” value was “diminished to variable extent”.
